At least one structure is not confirmed: it was looked up by name or label, or the drawing left a doubt.
Tests used:
[1] = system: mTOR pathway proteins (p70S6K, S6, 4E-BP1, AKT, cyclin D3) in MDA-468 cells; assay: Western Blots on proteins involved in translational control; type: cell-based, human
p70S6K in MDA-231 cells = assay: as above; type: cell-based, human; conditions: MDA-231, 48 hour incubation; for phosphorylation of p70S6K (Western blot): Compound 3 200 nM, Rapamycin 100 nM, LY294002 10 μM

SMILES | AKT phosphorylation on Ser473 (Western blot) ([1]; MDA-468, 24 hour incubation) | expression of cyclin D3 (Western blot) ([1]; MDA-468, 24 hour incubation) | gel mobility shift in total p70S6K (Western blot) ([1]; MDA-468, 48 hour incubation) | phosphorylation of p70S6K (Western blot) ([1]; MDA-468, 48 hour incubation) | gel mobility shift in total p70S6K (Western blot) (p70S6K in MDA-231 cells) | phosphorylation of p70S6K (Western blot) (p70S6K in MDA-231 cells)
O=c1cc(N2CCOCC2)oc2c(-c3ccccc3)cccc12 [LY294002] | inhibits | reduced | induce a gel mobility shift | inhibit | induce a gel mobility shift | inhibit
CO[C@H]1C[C@@H]2CC[C@@H](C)[C@@](O)(O2)C(=O)C(=O)N2CCCC[C@H]2C(=O)O[C@H]([C@H](C)C[C@@H]2CC[C@@H](O)[C@H](OC)C2)CC(=O)[C@H](C)/C=C(\C)[C@@H](O)[C@@H](OC)C(=O)[C@H](C)C[C@H](C)/C=C/C=C/C=C/1C [rapamycin] |  |  |  |  |  | inhibit
